# Assay results from the supplement of paper PMC11732987, “Enantioselective OTUD7B fragment discovery through chemoproteomics screening and high-throughput optimisation” (Communications Chemistry, 2025).
# The chains behind the UniProt entries cited, without tags or fusion partners. Where a name states a change or a piece, a line headed by the entry shows the natural chain unless it says otherwise. Residues count along the entry.
# UniProt P42858, whole entry, looked up: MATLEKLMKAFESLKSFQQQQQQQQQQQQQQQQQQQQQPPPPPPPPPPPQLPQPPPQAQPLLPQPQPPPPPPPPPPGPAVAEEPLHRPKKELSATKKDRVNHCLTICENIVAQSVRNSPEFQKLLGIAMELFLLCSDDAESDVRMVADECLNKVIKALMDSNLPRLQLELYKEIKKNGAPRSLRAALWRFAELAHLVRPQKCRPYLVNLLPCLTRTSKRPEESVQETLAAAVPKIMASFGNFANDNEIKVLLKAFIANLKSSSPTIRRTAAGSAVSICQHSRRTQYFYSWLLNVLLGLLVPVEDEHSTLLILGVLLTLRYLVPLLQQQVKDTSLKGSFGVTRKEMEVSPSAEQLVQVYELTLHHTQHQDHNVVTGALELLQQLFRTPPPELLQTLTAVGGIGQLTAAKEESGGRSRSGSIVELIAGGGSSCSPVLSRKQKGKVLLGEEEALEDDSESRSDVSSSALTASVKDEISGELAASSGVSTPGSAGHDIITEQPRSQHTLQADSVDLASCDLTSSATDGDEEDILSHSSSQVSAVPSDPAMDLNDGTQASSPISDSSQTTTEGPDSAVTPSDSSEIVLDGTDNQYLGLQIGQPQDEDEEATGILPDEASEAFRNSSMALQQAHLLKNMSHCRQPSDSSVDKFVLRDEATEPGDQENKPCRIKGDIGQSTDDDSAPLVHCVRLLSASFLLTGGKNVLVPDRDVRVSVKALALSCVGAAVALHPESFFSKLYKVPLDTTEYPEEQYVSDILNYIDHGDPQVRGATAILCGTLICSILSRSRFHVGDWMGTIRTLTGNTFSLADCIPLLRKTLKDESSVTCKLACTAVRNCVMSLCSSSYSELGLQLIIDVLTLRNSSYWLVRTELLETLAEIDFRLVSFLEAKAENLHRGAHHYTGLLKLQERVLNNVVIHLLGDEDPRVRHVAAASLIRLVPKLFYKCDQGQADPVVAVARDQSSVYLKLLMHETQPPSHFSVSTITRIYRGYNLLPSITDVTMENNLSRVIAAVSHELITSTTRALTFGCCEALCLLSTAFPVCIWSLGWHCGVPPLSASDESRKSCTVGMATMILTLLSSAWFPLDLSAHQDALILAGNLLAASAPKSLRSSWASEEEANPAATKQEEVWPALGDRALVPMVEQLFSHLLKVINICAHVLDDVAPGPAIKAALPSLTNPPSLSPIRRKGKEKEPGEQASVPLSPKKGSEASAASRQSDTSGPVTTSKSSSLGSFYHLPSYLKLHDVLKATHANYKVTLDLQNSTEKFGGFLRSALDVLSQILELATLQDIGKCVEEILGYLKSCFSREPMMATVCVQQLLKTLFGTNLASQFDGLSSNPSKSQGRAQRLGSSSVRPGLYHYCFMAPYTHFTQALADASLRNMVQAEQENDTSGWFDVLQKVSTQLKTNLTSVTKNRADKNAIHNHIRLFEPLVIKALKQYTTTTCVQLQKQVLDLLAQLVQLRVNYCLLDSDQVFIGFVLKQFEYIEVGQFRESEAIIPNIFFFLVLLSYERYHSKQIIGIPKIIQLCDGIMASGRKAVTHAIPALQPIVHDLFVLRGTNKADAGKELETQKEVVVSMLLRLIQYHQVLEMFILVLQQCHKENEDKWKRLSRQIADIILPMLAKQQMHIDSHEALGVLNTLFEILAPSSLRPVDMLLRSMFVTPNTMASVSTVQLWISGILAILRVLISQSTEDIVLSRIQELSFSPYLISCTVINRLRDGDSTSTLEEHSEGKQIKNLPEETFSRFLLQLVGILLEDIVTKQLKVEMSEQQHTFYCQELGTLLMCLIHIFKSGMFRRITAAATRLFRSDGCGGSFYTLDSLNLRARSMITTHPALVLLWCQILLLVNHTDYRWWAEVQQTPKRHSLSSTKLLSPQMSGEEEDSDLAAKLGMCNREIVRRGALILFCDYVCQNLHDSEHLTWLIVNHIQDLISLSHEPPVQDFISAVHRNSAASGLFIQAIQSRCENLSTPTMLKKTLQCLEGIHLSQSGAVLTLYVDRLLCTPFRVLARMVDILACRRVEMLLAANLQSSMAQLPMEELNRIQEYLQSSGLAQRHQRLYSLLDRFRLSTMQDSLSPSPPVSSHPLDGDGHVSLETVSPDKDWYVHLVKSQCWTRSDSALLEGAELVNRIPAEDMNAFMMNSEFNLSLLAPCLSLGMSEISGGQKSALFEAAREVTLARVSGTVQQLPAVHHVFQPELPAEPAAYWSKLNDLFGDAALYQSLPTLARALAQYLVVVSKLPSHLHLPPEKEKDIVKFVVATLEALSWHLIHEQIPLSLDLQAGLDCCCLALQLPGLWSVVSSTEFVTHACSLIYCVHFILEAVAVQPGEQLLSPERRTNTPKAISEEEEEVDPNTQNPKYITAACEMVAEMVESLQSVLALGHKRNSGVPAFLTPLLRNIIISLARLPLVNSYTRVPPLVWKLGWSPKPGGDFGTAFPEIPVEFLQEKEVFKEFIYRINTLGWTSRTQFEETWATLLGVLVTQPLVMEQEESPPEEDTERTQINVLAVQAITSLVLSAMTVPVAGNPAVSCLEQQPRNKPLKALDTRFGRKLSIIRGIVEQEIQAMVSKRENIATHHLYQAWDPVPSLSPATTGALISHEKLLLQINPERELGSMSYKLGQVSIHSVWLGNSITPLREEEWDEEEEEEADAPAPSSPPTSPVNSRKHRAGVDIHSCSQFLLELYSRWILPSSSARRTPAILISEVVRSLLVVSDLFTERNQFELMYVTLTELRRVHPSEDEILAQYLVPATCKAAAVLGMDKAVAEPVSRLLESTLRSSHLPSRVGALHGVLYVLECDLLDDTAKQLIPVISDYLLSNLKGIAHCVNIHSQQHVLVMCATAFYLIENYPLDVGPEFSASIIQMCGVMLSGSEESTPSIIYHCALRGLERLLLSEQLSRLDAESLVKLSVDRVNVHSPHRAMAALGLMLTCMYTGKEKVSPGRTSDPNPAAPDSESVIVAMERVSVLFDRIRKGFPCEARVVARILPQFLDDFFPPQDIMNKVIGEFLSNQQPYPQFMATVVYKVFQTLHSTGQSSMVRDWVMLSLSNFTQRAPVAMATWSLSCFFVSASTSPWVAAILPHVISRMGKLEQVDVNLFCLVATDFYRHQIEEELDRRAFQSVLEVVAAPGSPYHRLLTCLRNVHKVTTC
# UniProt O43719: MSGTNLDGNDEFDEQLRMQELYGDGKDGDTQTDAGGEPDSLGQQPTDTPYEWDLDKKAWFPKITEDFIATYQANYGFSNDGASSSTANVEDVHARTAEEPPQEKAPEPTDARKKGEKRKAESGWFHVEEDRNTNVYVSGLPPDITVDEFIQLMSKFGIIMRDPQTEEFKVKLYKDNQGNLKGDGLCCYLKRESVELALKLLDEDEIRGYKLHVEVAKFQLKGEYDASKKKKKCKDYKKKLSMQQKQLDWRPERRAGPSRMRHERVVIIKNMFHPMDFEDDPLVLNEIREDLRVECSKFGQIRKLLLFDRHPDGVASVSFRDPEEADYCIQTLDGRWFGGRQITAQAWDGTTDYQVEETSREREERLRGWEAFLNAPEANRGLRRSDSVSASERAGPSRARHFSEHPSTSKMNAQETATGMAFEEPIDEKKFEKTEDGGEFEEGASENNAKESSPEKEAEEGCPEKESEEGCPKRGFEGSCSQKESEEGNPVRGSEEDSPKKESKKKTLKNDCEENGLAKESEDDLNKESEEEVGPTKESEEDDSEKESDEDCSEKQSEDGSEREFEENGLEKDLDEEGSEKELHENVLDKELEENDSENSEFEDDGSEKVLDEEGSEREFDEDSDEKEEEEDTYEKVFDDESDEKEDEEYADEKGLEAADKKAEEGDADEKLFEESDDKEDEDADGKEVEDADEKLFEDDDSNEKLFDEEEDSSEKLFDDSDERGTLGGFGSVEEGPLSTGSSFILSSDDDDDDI
# UniProt P17181, 502-526: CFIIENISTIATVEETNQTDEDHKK
# UniProt Q7Z5L9: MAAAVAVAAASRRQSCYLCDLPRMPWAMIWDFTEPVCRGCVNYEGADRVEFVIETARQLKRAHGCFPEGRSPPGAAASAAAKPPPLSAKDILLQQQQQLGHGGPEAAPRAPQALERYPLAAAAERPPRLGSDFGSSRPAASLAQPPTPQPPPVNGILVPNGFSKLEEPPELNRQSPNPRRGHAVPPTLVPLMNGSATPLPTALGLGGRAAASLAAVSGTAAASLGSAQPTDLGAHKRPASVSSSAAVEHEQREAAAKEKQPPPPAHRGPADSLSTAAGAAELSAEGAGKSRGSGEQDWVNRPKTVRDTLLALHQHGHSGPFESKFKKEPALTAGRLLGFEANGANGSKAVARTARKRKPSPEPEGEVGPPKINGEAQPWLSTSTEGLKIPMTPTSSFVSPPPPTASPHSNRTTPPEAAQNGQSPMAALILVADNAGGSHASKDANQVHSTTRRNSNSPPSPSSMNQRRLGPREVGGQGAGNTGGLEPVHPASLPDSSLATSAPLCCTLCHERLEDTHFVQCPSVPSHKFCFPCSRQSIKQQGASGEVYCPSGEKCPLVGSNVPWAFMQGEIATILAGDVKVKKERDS
# UniProt Q8IU81, 340-368: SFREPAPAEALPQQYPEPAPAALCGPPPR
# UniProt Q9NWZ3, 418-440: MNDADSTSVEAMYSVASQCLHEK
# UniProt Q6YN16, 68-87: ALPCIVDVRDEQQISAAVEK
# UniProt Q9Y6M1, 233-256: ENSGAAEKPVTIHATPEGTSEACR
# UniProt Q68E01: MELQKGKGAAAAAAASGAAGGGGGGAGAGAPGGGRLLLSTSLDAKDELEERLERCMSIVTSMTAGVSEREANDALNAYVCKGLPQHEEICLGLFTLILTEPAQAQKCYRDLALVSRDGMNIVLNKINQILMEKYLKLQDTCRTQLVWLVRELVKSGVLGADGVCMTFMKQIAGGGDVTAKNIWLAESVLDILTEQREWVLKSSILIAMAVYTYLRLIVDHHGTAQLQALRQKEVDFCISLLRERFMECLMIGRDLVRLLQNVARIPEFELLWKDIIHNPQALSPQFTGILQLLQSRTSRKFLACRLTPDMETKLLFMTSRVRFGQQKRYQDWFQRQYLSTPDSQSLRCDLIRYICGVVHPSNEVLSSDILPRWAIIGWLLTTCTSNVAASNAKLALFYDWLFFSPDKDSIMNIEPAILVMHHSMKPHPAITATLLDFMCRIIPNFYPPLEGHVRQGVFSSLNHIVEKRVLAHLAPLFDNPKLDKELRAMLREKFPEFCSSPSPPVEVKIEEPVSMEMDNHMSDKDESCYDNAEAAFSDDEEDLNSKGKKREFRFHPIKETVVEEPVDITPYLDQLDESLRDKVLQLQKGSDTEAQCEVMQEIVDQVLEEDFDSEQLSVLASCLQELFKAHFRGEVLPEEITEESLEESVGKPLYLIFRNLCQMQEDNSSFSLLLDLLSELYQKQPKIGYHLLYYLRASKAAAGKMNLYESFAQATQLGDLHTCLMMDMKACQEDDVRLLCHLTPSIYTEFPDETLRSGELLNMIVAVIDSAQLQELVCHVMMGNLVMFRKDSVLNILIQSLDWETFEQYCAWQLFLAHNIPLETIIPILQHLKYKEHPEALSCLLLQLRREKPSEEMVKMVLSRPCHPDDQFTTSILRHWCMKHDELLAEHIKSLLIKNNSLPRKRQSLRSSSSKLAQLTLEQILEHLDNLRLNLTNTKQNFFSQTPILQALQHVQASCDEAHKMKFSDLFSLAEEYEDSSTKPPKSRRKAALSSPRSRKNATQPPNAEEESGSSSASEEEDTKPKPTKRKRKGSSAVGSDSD
# UniProt Q9NVR2, whole entry, looked up: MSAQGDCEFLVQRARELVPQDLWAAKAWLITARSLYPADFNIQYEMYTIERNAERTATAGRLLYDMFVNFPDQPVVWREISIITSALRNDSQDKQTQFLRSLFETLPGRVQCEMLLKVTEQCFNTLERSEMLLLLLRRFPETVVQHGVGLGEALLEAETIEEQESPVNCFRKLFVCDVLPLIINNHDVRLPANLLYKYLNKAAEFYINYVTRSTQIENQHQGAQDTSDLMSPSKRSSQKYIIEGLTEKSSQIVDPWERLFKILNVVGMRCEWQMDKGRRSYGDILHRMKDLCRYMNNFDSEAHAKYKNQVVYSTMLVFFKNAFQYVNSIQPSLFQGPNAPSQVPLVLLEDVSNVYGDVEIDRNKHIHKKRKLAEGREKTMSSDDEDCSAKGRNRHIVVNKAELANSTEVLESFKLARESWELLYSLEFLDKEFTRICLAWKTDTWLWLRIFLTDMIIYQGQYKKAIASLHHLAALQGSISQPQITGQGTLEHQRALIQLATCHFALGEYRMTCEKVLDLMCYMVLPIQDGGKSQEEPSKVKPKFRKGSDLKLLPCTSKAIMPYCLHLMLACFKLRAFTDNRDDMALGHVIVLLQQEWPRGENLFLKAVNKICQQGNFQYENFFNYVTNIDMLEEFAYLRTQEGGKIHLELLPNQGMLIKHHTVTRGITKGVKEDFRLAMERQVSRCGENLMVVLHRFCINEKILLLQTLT
# This is one part of the list. The data scatter; read single values as rough.
# Key:
# [1] = compound: ClCC(=O)N[C@@H]1CCCc2ccccc12; assay: log2 mean competition ratio of IA-DTB cysteine labelling (DMSO/compound) (log2 ratio); higher = stronger cysteine engagement by compound; settings: treatment time: 4 h, cell line lysate: HEK293T
# Description: (§1)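 IA-DTB competitive cysteine chemoproteomics in HEK293T RIPA lysate. Lysates were treated with compound 29 or 30 at 50 or 200 µM for 4 h, then IA-DTB (500 µM, 1 h), trypsin-digested, NeutrAvidin-enriched and analysed by diaPASEF. Competition ratio = intensity DMSO / intensity compound (n=4 treated, n=64 DMSO); binding: mean log2 CR ≥ 1 and p ≤ 0.05 plus QC filters. Target is the cysteine site.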
# [2] = compound: ClCC(=O)N[C@H]1CCCc2ccccc12; assay: as above; settings: treatment time: 4 h, cell line lysate: HEK293T
# Description: as §1
Target,log2 mean competition ratio ([1]; 50 µM),log2 mean competition ratio ([1]; 200 µM),log2 mean competition ratio ([2]; 50 µM),log2 mean competition ratio ([2]; 200 µM)
ILKAP C301 (UniProt Q9H0C8),-0.136,-0.0804,-0.121,0.138
HTT C942 (UniProt P42858),0.0958,-0.0566,-0.133,-0.0425
HSPD1 C442 (UniProt P10809),-0.00593,0.213,0.318,0.467
HTATSF1 C295 (UniProt O43719),-0.191,-0.00442,-0.00847,-0.134
HSPH1 C650,0.0903,0.0631,0.0377,-0.097
INTS5 C485 (UniProt Q6P9B9),0.172,-0.103,-0.0732,-0.177
IKBKB C299 (UniProt O14920),-0.014,0.0246,0.172,0.0724
HSPA1A;HSPA1B C306;(C306),-0.41,-0.299,-0.308,-0.0733
IPO9 C864 (UniProt Q96P70),0.32,-0.0605,0.892,0.0188
HTT C1998 (UniProt P42858),0.545,-0.0302,-0.261,-0.035
INCENP C15 (UniProt Q9NQS7),0.253,-0.317,0.177,-0.105
IFRD1 C178 (UniProt O00458),0.15,-0.21,-0.222,0.121
HSPH1 C845,0.165,-0.252,0.0243,-0.474
HYKK C99 (UniProt A2RU49),0.103,-0.246,0.633,-0.237
IFT172 C517 (UniProt Q9UG01),-0.242,0.0366,-0.68,0.222
HSPBP1 C201,-0.079,0.098,-0.27,0.125
IFNAR1 C426 (UniProt P17181),-0.333,-0.00993,-0.581,0.01
IFT140 C1360 (UniProt Q96RY7),-0.525,-0.131,-0.0696,-0.0655
IGF2BP3 C336 (UniProt O00425),-0.195,0.0501,0.164,0.162
IDH2 C402 (UniProt P48735),-0.178,-0.236,-0.247,-0.187

Target,log2 mean competition ratio ([1]; 50 µM),log2 mean competition ratio ([1]; 200 µM),log2 mean competition ratio ([2]; 50 µM),log2 mean competition ratio ([2]; 200 µM)
HSPA9 C366 (UniProt P38646),-0.0673,-0.135,0.214,-0.112
INTS7 C374 (UniProt Q9NVH2),-0.159,0.0476,-0.194,-0.141
IFT80 C106 (UniProt Q9P2H3),0.486,0.00345,0.476,-0.134
IRF2BP2 C549 (UniProt Q7Z5L9),0.333,-0.544,0.532,-0.245
HPS3 C915 (UniProt Q969F9),-0.0902,-0.236,-0.266,-0.09
IRF2BP2 C65 (UniProt Q7Z5L9),-0.0815,-0.0594,0.252,0.00461
IRF2BP1 C363 (UniProt Q8IU81),0.0149,-0.0481,0.359,0.0394
HPS5 C200 (UniProt Q9UPZ3),0.14,0.189,0.16,0.239
IPO4 C708 (UniProt Q8TEX9),0.109,0.0201,-0.524,-0.182
IRAK4 C436 (UniProt Q9NWZ3),-0.116,0.00317,-0.127,-0.245
IQGAP1 C494 (UniProt P46940),-0.563,0.265,0.0862,0.362
IPO5 C733,-0.0803,0.0622,-0.32,0.152
HPF1 C29 (UniProt Q9NWY4),-0.0791,0.153,-0.819,0.116
HPF1 C17 (UniProt Q9NWY4),-0.00383,0.486,-0.271,0.508
HSDL2 C71 (UniProt Q6YN16),0.0267,0.181,-0.0455,0.0386
INPPL1 C1187 (UniProt O15357),-0.0531,-0.665,-0.0297,-0.234
IGF2BP2 C255 (UniProt Q9Y6M1),-0.143,-0.0122,-0.245,-0.085
HSDL1 C265 (UniProt Q3SXM5),0.0227,-0.303,0.186,-0.109
INPP4A C540 (UniProt Q96PE3),-0.0875,-0.232,0.805,-0.0285
IFNAR1 C502 (UniProt P17181),-0.093,0.0824,0.196,-0.404

# Copied from the listing for reference:
Target,log2 mean competition ratio ([1]; 50 µM),log2 mean competition ratio ([1]; 200 µM),log2 mean competition ratio ([2]; 50 µM),log2 mean competition ratio ([2]; 200 µM)
IRF2BP2 C549 (UniProt Q7Z5L9),0.333,-0.544,0.532,-0.245
HPS3 C915 (UniProt Q969F9),-0.0902,-0.236,-0.266,-0.09
IRF2BP2 C65 (UniProt Q7Z5L9),-0.0815,-0.0594,0.252,0.00461

# Remaining list, next part:

Target,log2 mean competition ratio ([1]; 50 µM),log2 mean competition ratio ([1]; 200 µM),log2 mean competition ratio ([2]; 50 µM),log2 mean competition ratio ([2]; 200 µM)
HUWE1 C1074,0.0966,-0.393,-0.103,-0.293
IDH3B C185 (UniProt O43837),-0.0851,-0.319,0.28,-0.109
INTS3 C80 (UniProt Q68E01),-0.2,0.0963,-0.0552,0.177
INTS10 C270 (UniProt Q9NVR2),0.294,0.115,-0.118,0.0684
IGF2R C1856 (UniProt P11717),0.122,0.362,0.0397,0.514
HTT C150 (UniProt P42858),-0.17,-0.0173,0.242,-0.0176
HTT C2747 (UniProt P42858),0.122,0.466,-0.562,0.152
HSPA4L C270 (UniProt O95757),-0.117,-0.034,0.115,0.0948
INPP4A C854 (UniProt Q96PE3),0.139,0.161,-0.267,0.176
HUWE1 C3361,-0.142,0.24,-0.277,0.261
INTS10 C555 (UniProt Q9NVR2),-0.194,0.129,-0.33,0.268
IP6K1 C248 (UniProt Q92551),0.419,-0.357,0.624,-0.268
IPO13 C309 (UniProt O94829),-0.0939,0.0246,-0.182,0.222
INTS13 C178 (UniProt Q9NVM9),-0.0693,0.213,-0.0174,-0.312
HUWE1 C689,-0.109,-0.0923,-0.368,-0.0753
ILK C239 (UniProt Q13418),-0.0745,0.308,0.17,0.345
ILVBL C608 (UniProt A1L0T0),-0.0274,0.159,-0.00745,0.0591
HUWE1 C19,-0.299,0.715,-0.233,0.767
